In patent US20260284208A1, “SYSTEM” (Oxford University Innovation Limited, priority 2023, published 2026):
Further values from the same series stand in other lists.

System: library of 8,380 IKZF3 degrons (ZF-eGFP/mCherry reporter) in Jurkat cells
Assay: Pooled library screen (FACS, NGS, limma voom LogFC of positive vs negative read counts)
Format: cell-based, human
Description: A library of 8,380 IKZF3 degrons was cloned into pLVX-Sprout to create the eGFP/mCherry protein degradation reporter plasmid pool. A lentivirus pool was then generated using the Lenti-X lentiviral vector production method.
Jurkat cells were transduced at a multiplicity of infection of <0.3 with the lentivirus vector library in order to maximise the number of cells with a single integration. Transductions were carried out in 6 well TC-treated cell culture dishes (Falcon) with 3×10^6 cells per well. Cells were incubated for 2 days at 37° C. and 5% CO2 before the supernatant was removed and replaced with fresh media. 6 days post-transduction, mCherry+ cells were isolated via FACS using the FACS Aria Fusion (BD) in a buffer containing PBS (Gibco), 2 mM EDTA (Gibco), 25 mM HEPES (Sigma) and 1% BSA (Sigma). 8 days later, cells were treated with DMSO or a thalidomide analog for 18 hours at 37° C. and 5% CO2. mCherry+GFPlow and NOT(mCherry+GFPlow) cells were sorted by FACS using the FACS Aria Fusion (BD). DMSO treated cells were used to set the mCherry+GFPlow gate and dead cells were excluded from sorting by staining cells with 1 μg/mL DAPI (ThermoFisher). gDNA was isolated using the Maxwell RSC 48 (Promega). gDNA from cells that were unsorted and untreated were also isolated to determine the library representation on the day of compound treatment. Throughout the screen >600× coverage of the library was maintained. 3 biological replicates were carried out with a new transduction taking place each time.
A two-step PCR was used where the first PCR (PCR1) amplified the integrated degron sequence from gDNA and the second PCR (PCR2) added Illumina adaptors and barcodes to permit multiplexing. See Supp F for PCR1 and PCR2 primers. Q5 Hot Start High-Fidelity 2× Master Mix (New England Biolabs) was used for both PCRs. Sufficient gDNA was amplified in PCR1 in order to maintain >600× coverage and amplicons were purified using solid phase reversible immobilization (SPRI) beads (Beckman Coulter). Purified PCR1 products were analysed on the Tapestation 4200 (Agilent) to confirm purity prior to proceeding to PCR2. Sufficient PCR1 product was amplified in PCR2 in order to maintain >600× coverage and amplicons were run on a 2% agarose TAE gel. Target bands were excised and purified using the NucleoSpin Gel and PCR Clean-up Kit (Machery Nagel). Amplicons were analysed on the Tapestation 4200 and quantified using Qubit dsDNA HS kit (ThermoFisher). PCR products were pooled and sequenced as paired-reads on the NovaSeq (Illumina) using a SP2 200 cycles kit (Illumina).
Count distributions, percentage of read mapping, library coverage and replicate correlation per sample were assessed for QC purposes.
To carry out the library screen, we used the same plasmid construct as in our earlier flow cytometry assays, but pooling all 8,380 mutants together into one Jurkat population, ensuring a copy number of one plasmid per cell (FIG. 4B). […] These GFP-negative cells were then separated from the remaining GFP-positive population using fluorescence activated cell sorting (FACS). These two populations were then sequenced and the relative abundance of every mutant in both populations compared to provide a log FC value for each mutant sequence. This value indicated how frequently a sequence is observed in the GFP-negative population relative to the GFP-positive population, and therefore how effective a degron it is for that particular IMID compound.

## O=C1CCC(N2C(=O)c3ccc(N4CCOCC4)cc3C2=O)C(=O)N1 (stereo not shown) [B03]
Degron 4300 (SEQ ID NO 3506) 46F_47W_49P_50V_52G_53A_54A_55F_67L
  B03_logFC: 3.687
Degron 4301 (SEQ ID NO 3614) 46F_47W_49P_50V_52G_53A_54C_55F_67L
  B03_logFC: 3.444
Degron 4306 (SEQ ID NO 3480) 46F_47W_49P_50V_52G_53A_54H_55F_67L
  B03_logFC: 3.788
Degron 4311 (SEQ ID NO 3465) 46F_47W_49P_50V_52G_53A_54N_55F_67L
  B03_logFC: 3.855
Degron 4313 (SEQ ID NO 3456) 46F_47W_49P_50V_52G_53A_54Q_55F_67L
  B03_logFC: 3.919
Degron 4314 (SEQ ID NO 3581) 46F_47W_49P_50V_52G_53A_54R_55F_67L
  B03_logFC: 3.51
Degron 4315 (SEQ ID NO 3601) 46F_47W_49P_50V_52G_53A_54S_55F_67L
  B03_logFC: 3.475
Degron 4316 (SEQ ID NO 3612) 46F_47W_49P_50V_52G_53A_54T_55F_67L
  B03_logFC: 3.45
Degron 4321 (SEQ ID NO 3630) 46F_47Y_49D_50I_52G_53A_54C_55F_67L
  B03_logFC: 3.415
Degron 4326 (SEQ ID NO 3640) 46F_47Y_49D_50I_52G_53A_54H_55F_67L
  B03_logFC: 3.376
Degron 4331 (SEQ ID NO 3625) 46F_47Y_49D_50I_52G_53A_54N_55F_67L
  B03_logFC: 3.424
Degron 4332 (SEQ ID NO 3553) 46F_47Y_49D_50I_52G_53A_54P_55F_67L
  B03_logFC: 3.565
Degron 4333 (SEQ ID NO 3559) 46F_47Y_49D_50I_52G_53A_54Q_55F_67L
  B03_logFC: 3.554
Degron 4380 (SEQ ID NO 3547) 46F_47Y_49E_50I_52G_53A_54A_55F_67L
  B03_logFC: 3.592
Degron 4381 (SEQ ID NO 3540) 46F_47Y_49E_50I_52G_53A_54C_55F_67L
  B03_logFC: 3.605
Degron 4386 (SEQ ID NO 3592) 46F_47Y_49E_50I_52G_53A_54H_55F_67L
  B03_logFC: 3.489
Degron 4387 (SEQ ID NO 3573) 46F_47Y_49E_50I_52G_53A_54I_55F_67L
  B03_logFC: 3.527
Degron 4388 (SEQ ID NO 3468) 46F_47Y_49E_50I_52G_53A_54K_55F_67L
  B03_logFC: 3.839
Degron 4389 (SEQ ID NO 3639) 46F_47Y_49E_50I_52G_53A_54L_55F_67L
  B03_logFC: 3.379
Degron 4390 (SEQ ID NO 3626) 46F_47Y_49E_50I_52G_53A_54M_55F_67L
  B03_logFC: 3.419
Degron 4391 (SEQ ID NO 3508) 46F_47Y_49E_50I_52G_53A_54N_55F_67L
  B03_logFC: 3.678
Degron 4392 (SEQ ID NO 3489) 46F_47Y_49E_50I_52G_53A_54P_55F_67L
  B03_logFC: 3.743
Degron 4393 (SEQ ID NO 3562) 46F_47Y_49E_50I_52G_53A_54Q_55F_67L
  B03_logFC: 3.548
Degron 4394 (SEQ ID NO 3644) 46F_47Y_49E_50I_52G_53A_54R_55F_67L
  B03_logFC: 3.37
Degron 4396 (SEQ ID NO 3452) 46F_47Y_49E_50I_52G_53A_54T_55F_67L
  B03_logFC: 4.054
Degron 4397 (SEQ ID NO 3543) 46F_47Y_49E_50I_52G_53A_54V_55F_67L
  B03_logFC: 3.6
Degron 4421 (SEQ ID NO 3467) 46F_47Y_49E_50V_52G_53A_54C_55F_67L
  B03_logFC: 3.846
Degron 4426 (SEQ ID NO 3532) 46F_47Y_49E_50V_52G_53A_54H_55F_67L
  B03_logFC: 3.622
Degron 4427 (SEQ ID NO 3609) 46F_47Y_49E_50V_52G_53A_54I_55F_67L
  B03_logFC: 3.453
Degron 4428 (SEQ ID NO 3518) 46F_47Y_49E_50V_52G_53A_54K_55F_67L
  B03_logFC: 3.658
Degron 4430 (SEQ ID NO 3623) 46F_47Y_49E_50V_52G_53A_54M_55F_67L
  B03_logFC: 3.428
Degron 4431 (SEQ ID NO 3461) 46F_47Y_49E_50V_52G_53A_54N_55F_67L
  B03_logFC: 3.876
Degron 4432 (SEQ ID NO 3610) 46F_47Y_49E_50V_52G_53A_54P_55F_67L
  B03_logFC: 3.453
Degron 4433 (SEQ ID NO 3549) 46F_47Y_49E_50V_52G_53A_54Q_55F_67L
  B03_logFC: 3.573
Degron 4434 (SEQ ID NO 3475) 46F_47Y_49E_50V_52G_53A_54R_55F_67L
  B03_logFC: 3.797
Degron 4435 (SEQ ID NO 3462) 46F_47Y_49E_50V_52G_53A_54S_55F_67L
  B03_logFC: 3.865
Degron 4436 (SEQ ID NO 3451) 46F_47Y_49E_50V_52G_53A_54T_55F_67L
  B03_logFC: 4.14
Degron 4437 (SEQ ID NO 3481) 46F_47Y_49E_50V_52G_53A_54V_55F_67L
  B03_logFC: 3.786
Degron 4452 (SEQ ID NO 3566) 46F_47Y_49N_50I_52G_53A_54P_55F_67L
  B03_logFC: 3.541
Degron 4501 (SEQ ID NO 3527) 46F_47Y_49P_50I_52G_53A_54C_55F_67L
  B03_logFC: 3.633
Degron 4506 (SEQ ID NO 3556) 46F_47Y_49P_50I_52G_53A_54H_55F_67L
  B03_logFC: 3.558
Degron 4511 (SEQ ID NO 3605) 46F_47Y_49P_50I_52G_53A_54N_55F_67L
  B03_logFC: 3.463
Degron 4513 (SEQ ID NO 3554) 46F_47Y_49P_50I_52G_53A_54Q_55F_67L
  B03_logFC: 3.563
